This assay concerns the target LexA-Tsg101 (human) (UniProt Q99816). As to the kind of experiment: two-hybrid; LexA-based; LexA-Tsg101 bait (LexA(1-202)+PL-TSG101) and GAD-GK-PTAP prey in strain CTY10-5d with the lexAop-lacZ reporter; beta-galactosidase filter assay.

Sequences of proteins named here, by UniProt entry; tags and fusion partners are left off.
UniProt Q99816: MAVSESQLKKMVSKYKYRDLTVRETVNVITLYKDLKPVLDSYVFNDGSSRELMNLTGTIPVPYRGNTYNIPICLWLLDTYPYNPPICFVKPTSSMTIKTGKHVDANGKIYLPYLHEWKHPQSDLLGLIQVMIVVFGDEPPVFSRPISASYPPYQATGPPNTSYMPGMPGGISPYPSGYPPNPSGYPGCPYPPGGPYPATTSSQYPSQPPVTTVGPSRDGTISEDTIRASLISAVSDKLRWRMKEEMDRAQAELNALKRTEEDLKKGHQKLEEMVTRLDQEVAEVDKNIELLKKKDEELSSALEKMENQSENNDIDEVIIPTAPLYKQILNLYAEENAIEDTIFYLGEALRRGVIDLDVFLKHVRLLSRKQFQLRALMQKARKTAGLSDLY

This is an account of results in PMC7713115.

These are yes or no findings as the source states them, for the method shown. Some results given as binding are weak or reduced against the parent protein; the word gives no strength.

GAD-GK-PTAP (from UniProt P35557 1-465): the binding entry was “binds”.
